Results are given in words; binding and its absence hold for the method and conditions named.
Molecular target: R1-I77R, isolated RING domain of rhesus TRIM5α with I77R (rhesus monkey) (UniProt Q0PF16)
Test: AUC; sedimentation velocity, 20 °C, 50 mM Tris-HCl pH 7.5, 150 mM NaCl, 1 mM TCEP, c(S) analysis; both purified

Protein sequences, listed by entry. Tags and fused reporters are not part of them. Lines headed by an entry give the natural chain unless they say otherwise; changes in a name come on top. Chains listed by the source or under a name are the forms on record and can include a tag or linker.
R1-I77R, isolated RING domain of rhesus TRIM5α with I77R (Q0PF16, form named): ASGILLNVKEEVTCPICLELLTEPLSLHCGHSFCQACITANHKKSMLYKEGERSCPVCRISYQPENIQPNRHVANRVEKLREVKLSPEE

binding: no binding
Substance: R1-I77R, isolated RING domain of rhesus TRIM5α with I77R (from UniProt Q0PF16 2-90) (domain or fragment)

Source: publication PMC9675739, “Structural and functional asymmetry of RING trimerization controls priming and extension events in TRIM5α autoubiquitylation” (Nature Communications, 2022)
